Test results reported in PMC12447578, “Syndecan-4 interacts directly with β-parvin and regulates the ILK-PINCH-β-parvin complex, the β-parvin-β-PIX-Rac1 axis, and cardiomyocyte geometry in a sex-dependent manner” (Frontiers in Cell and Developmental Biology, 2025).
Results are given in words; binding and its absence hold for the method and conditions named. Where a sequence is shown, tags or fusion partners need not be part of it.

T1: Full-length (FL) recombinant human C-Myc/DDK-β-parvin (human) (UniProt Q9HBI1)
T1 sequence: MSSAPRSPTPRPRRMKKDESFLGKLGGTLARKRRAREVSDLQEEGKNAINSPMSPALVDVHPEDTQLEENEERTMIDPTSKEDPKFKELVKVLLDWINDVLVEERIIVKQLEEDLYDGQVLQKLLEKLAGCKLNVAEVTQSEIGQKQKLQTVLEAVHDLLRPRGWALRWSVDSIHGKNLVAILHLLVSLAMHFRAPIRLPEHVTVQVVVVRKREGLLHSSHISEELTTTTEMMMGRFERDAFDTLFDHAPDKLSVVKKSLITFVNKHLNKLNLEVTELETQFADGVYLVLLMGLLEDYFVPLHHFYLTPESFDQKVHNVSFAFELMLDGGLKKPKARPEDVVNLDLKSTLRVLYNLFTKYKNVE


Each binder was assayed against T1, Full-length (FL) recombinant human C-Myc/DDK-β-parvin (human) (assay: ELISA; wells coated with recombinant FL human β-parvin; biotinylated cytoplasmic tails of syndecans 1-4 or SDC4scram overlaid; as in Mathiesen et al., 2019; both purified).

Row | binding | Binder
1 | no binding | YRMKKKDEGSYTLEEPKQASVTYQKPDKQEEFYA (peptide, UniProt O75056 409-442, biotin) [biotinylated cytoplasmic tail of syndecan-3 (SDC3cyt)]
2 | no binding | RMRKKDEGSYDLGERKPSSAAYQKAPTKEFYA (peptide, UniProt P34741 170-201, biotin) [biotinylated cytoplasmic tail of syndecan-2 (SDC2cyt)]
3 | no binding | YRMKKKDEGSYSLEEPKQANGGAYQKPTKQEEFYA (peptide, UniProt P18827 276-310, biotin) [biotinylated cytoplasmic tail of syndecan-1 (SDC1cyt)]
